Test results reported in the supplement of paper PMC5949888.
Most values lie at the floor of the assay. Slopes are relative: functional sequences can read slightly below zero.

What follows are substances tested on Saccharomyces cerevisiae PS128 hsf1 delta, HSF1(1-493) fusion (assay: growth estimate (transactivation domain function in HSF1 fusion, heat-shock survival) (a.u. (slope of normalised read count over time)); higher = stronger growth at 37°C, i.e. more transactivation activity). Conditions: library: random library.
With HRFGQCALWFVS the growth estimate was < -0.25.
For RSTEMLDFSAELRNEGKKFL, the growth estimate was < -0.25.
In the case of WCAVHCGERSW, the growth estimate is reported as < -0.25.
For WRKGQTPLVHQWTTKCMPLA, the growth estimate was < -0.25.
With PQIQDRGKAI the growth estimate was < -0.25.
In the case of HKVWLDTWASAGGFSLVWVS, the growth estimate is reported as < -0.25.
GPRPNLGAPRVARVRRQ was tested, and the growth estimate was < -0.25.
For KVRVPRLFSRRNIRA, the growth estimate was < -0.25.
In the case of YGQFSGHRAY, the growth estimate is reported as < -0.25.
TILFFKE was tested, and the growth estimate was < -0.25.
In the case of MLRPQRGHGWSGYLAEKARM, the growth estimate is reported as < -0.25.
TGERVFGMRTSVAREDVLLM was tested, and the growth estimate was < -0.25.
DKIS was tested, and the growth estimate was < -0.25.
With SWQVHWLTGPI the growth estimate was < -0.25.
In the case of SLRNGGGIVCLFDGTIPEPR, the growth estimate is reported as -0.246.
IASRQCKSTVPIITWTAPEC was tested, and the growth estimate was < -0.25.
PYSIDVVPGITSQPPMKAPF was tested, and the growth estimate was < -0.25.
For WHSTLGDSHTARCLADCRSI, the growth estimate was < -0.25.
LDFGWIEVKAVP was tested, and the growth estimate was < -0.25.
With VCGPGFKAISGIVDNNKIRT the growth estimate was < -0.25.
With ALVEARAGIVKACAACYSGL the growth estimate was < -0.25.
With DLSTRRVGSALSHGVMPKQP the growth estimate was < -0.25.
In the case of SLCSS, the growth estimate is reported as < -0.25.
Substance LRPKI has a growth estimate of -0.246.
ERPERYSRVPGPEPIEYKGT was tested, and the growth estimate was < -0.25.
KTLFPK was tested, and the growth estimate was < -0.25.
In the case of TLQVKFYDPIASRQGDVRGM, the growth estimate is reported as < -0.25.
In the case of RRSS, the growth estimate is reported as < -0.25.
LDPPMSSTRFETEG was tested, and the growth estimate was < -0.25.
STH was tested, and the growth estimate was < -0.25.
DLTGGRRQSANRDYRN was tested, and the growth estimate was < -0.25.
For KDRQNQRLTLGGFRSTWLDW, the growth estimate was < -0.25.
DIATALIGGMMRLSCHVSVN was tested, and the growth estimate was < -0.25.
For PGRHAVG, the growth estimate was < -0.25.
In the case of LFMTELLRSFDGYDGATLDG, the growth estimate is reported as 7.7.
For VRQRWRLMSGLLSLVKLQDR, the growth estimate was < -0.25.
For DLSLTYR, the growth estimate was < -0.25.
In the case of FGSLQARPSNQTRQPQP, the growth estimate is reported as < -0.25.
For DRGKIMIAGCRSGTALSKRL, the growth estimate was < -0.25.
In the case of IILWVIQVLAPFVKLTDLR, the growth estimate is reported as < -0.25.
With LFLRTPHVISYESGLHLLQA the growth estimate was < -0.25.
GGISTK was tested, and the growth estimate was < -0.25.
RFLEGRPSVMRDEKLALPRD was tested, and the growth estimate was < -0.25.
With RYGTARKSSQNR the growth estimate was < -0.25.
For SSNKV, the growth estimate was < -0.25.
With IPSY the growth estimate was < -0.25.
With AHYGTHVSWSAYAGFVITLW the growth estimate was < -0.25.
With PRSPGWLGLR the growth estimate was < -0.25.
In the case of NYLEAKEQNGALVGPQVSSR, the growth estimate is reported as < -0.25.
In the case of SPLQTSCTITYRRRR, the growth estimate is reported as < -0.25.
With YASYYSSWEYWNPRPRRCNN the growth estimate was < -0.25.
For IQIPPELSGCDQCLPVALTR, the growth estimate was < -0.25.
With FLSPSPSRTQPAE the growth estimate was -0.245.
In the case of AVPQSVPETFTMSDYRR, the growth estimate is reported as < -0.25.
In the case of VHG, the growth estimate is reported as < -0.25.
In the case of SCCLKVMCWIPGNWDKYGYS, the growth estimate is reported as < -0.25.
In the case of RSGRSKRGKILQGAWF, the growth estimate is reported as < -0.25.
For GHLGASK, the growth estimate was < -0.25.
For DTLNHAAS, the growth estimate was < -0.25.
In the case of VAPVCRPRHLVCEPSLLSSG, the growth estimate is reported as < -0.25.
In the case of LRPFLRRRGRIRNPFFDPVS, the growth estimate is reported as < -0.25.
For AVKGTSSY, the growth estimate was < -0.25.
In the case of VGEGRAIMVSQKMGVVGGLC, the growth estimate is reported as < -0.25.
With SKNYMD the growth estimate was < -0.25.
For LDPHHTLYHCYLDQHGSREH, the growth estimate was < -0.25.
For GITPSAVNLEALLVWIDNLS, the growth estimate was < -0.25.
For APKVGDGYESRP, the growth estimate was < -0.25.
With SACIYCWLDGRETPGLQPAK the growth estimate was 0.564.
For GSDLWIQYRIYLPGFGVPSP, the growth estimate was < -0.25.
In the case of KKEWT, the growth estimate is reported as < -0.25.
IRFGILPTSDSPVRSTNDQD gave a growth estimate of 0.0413.
With FARGVLGFSGRGSMAAIRYT the growth estimate was < -0.25.
For GNGKVSS, the growth estimate was < -0.25.
RTPGVYDFSSQDPLPSVARR was tested, and the growth estimate was < -0.25.
In the case of FLRFKSRHMDLIGRDRIGFL, the growth estimate is reported as -0.243.
For FCHSRIDFRCSVKL, the growth estimate was < -0.25.
For WWKRRGAWISAGCGGSHLDD, the growth estimate was < -0.25.
SSWPDTELLTSVGADRERGA was tested, and the growth estimate was < -0.25.
For VKT, the growth estimate was < -0.25.
For ARTQGSAGKVDNATSRERHY, the growth estimate was < -0.25.
In the case of YGGPRVG, the growth estimate is reported as < -0.25.
FPLRSGI was tested, and the growth estimate was < -0.25.
With CVSSQSNTDNRARTEFGAVV the growth estimate was < -0.25.
VSGLGLCANTREVGGSARYE was tested, and the growth estimate was < -0.25.
For LGIFGGVNHVACVTNFI, the growth estimate was < -0.25.
With PRPKHAVVS the growth estimate was < -0.25.
For SCYLFDCRSY, the growth estimate was < -0.25.
For GPSQAERGRT, the growth estimate was < -0.25.
For GVSRYMG, the growth estimate was < -0.25.
KKSSKDLREGVVTPKG was tested, and the growth estimate was < -0.25.
With TTSAHLLGTTTCFQRFSTRP the growth estimate was < -0.25.
For IGDGKRFCIQDT, the growth estimate was < -0.25.
PHNFCM was tested, and the growth estimate was < -0.25.
With FISPRPARRGGYSPNLELPA the growth estimate was < -0.25.
With YTVGAWAEMAYNTWQKQSTH the growth estimate was < -0.25.
In the case of TMA, the growth estimate is reported as < -0.25.
With PGYRRLKMSSVDTP the growth estimate was < -0.25.
For FSPRPVCTGRDHIVCRESVF, the growth estimate was < -0.25.
In the case of RMRAANRRPTAKDPVCDC, the growth estimate is reported as < -0.25.
